PubChem BioAssay AID1259254 – NCATS, 2017

- Screen: 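Finding genes that stop cells copying their DNA twice in one cycle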 (primary screen)
- System: human HCT116 colorectal cancer cells
- Reagents: single siRNA against human genes
- Duration: 3 days
- Read-out: 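Nuclei stained with Hoechst and imaged; cell-cycle phase assigned by DNA content; G2 share scaled per plate, non-targeting siRNA 0%, GMNN siRNA 100%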
- Reading the numbers: G2 robust z-score: higher = more G2 cells, more excess DNA replication
- Rule for the call: 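Active siRNAs have a G2 robust z of 5 or more median absolute deviations over the median, which in these data means about 38% or higher of GMNN control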
Here is one part, drawn at random, of about 59,000 deposited reagents. Over the whole deposit, about 1,550 (2.6%) got an active call. 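G2 share is only a proxy for re-replication; each gene was hit by three separate siRNAs, and active genes were retested.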 Unmarked entries are inactive. Reagents against one gene are numbered here. Further read-outs or replicates are left out here. No sequences are given here. The record does not give: the amount of reagent.

G2 robust z-score, by gene and reagent
SLC51A: #1 0.545; #2 -0.856; #3 1.57
GPHB5 (glycoprotein hormone subunit beta 5): #1 4.39; #2 2.96; #3 -0.146
ODAD1 (outer dynein arm docking complex subunit 1): #1 -0.0512; #2 0.481; #3 0.614
F8 (coagulation factor VIII): #1 2.4; #2 -0.257; #3 -0.0529
ZNF852 (zinc finger protein 852): #1 -0.121; #2 1.28; #3 0.692
CBX5 (chromobox 5): #1 -0.371; #2 -1.04; #3 -1.17
ATP6V1E2 (ATPase H+ transporting V1 subunit E2): #1 0.371; #2 0.904; #3 -1.27
OGFOD2: #1 -1.05; #2 5.13 (active); #3 4.06
ZNF682 (zinc finger protein 682): #1 -1.06; #2 -0.355; #3 -0.326
P4HTM (prolyl 4-hydroxylase, transmembrane): #1 -0.34; #2 -0.768; #3 -0.319
LOC643962 (retired record): #1 0.307; #2 -0.749; #3 2.05
OPTC (opticin): #1 5.48 (active); #2 2.29; #3 5.61 (active)
LGALS1 (galectin 1): #1 0.0885; #2 0.568; #3 0.329
MARK2 (microtubule affinity regulating kinase 2): #1 0.057; #2 2.05; #3 -0.77
SLFN5 (schlafen family member 5): #1 -0.0187; #2 -0.732; #3 0.294
LINC00460 (long independently transcribed non-coding RNA 460): #1 0.784; #2 0.111; #3 -1.08
LMOD3 (leiomodin 3): #1 0.34; #2 1.35; #3 -0.309
PNMA6E (PNMA family member 6E): #1 -0.0613; #2 0.233; #3 0.149
COL18A1 (collagen type XVIII alpha 1 chain): #1 -0.513; #2 -0.0876; #3 -0.258
UFSP2 (UFM1 specific peptidase 2): #1 -0.264; #2 -0.496; #3 -1.21
SNX29P1 (sorting nexin 29 pseudogene 1): #1 -0.9; #2 -0.0454; #3 1.33
FIS1 (fission, mitochondrial 1): #1 0.706; #2 -0.75; #3 0.599
GAL (galanin and GMAP prepropeptide): #1 -0.328; #2 0.103; #3 5.11 (active)
DOK3 (docking protein 3): #1 0.053; #2 -0.517; #3 0.34
PSG1 (pregnancy specific beta-1-glycoprotein 1): #1 -0.537; #2 -0.598; #3 1.11
TBCE (tubulin folding cofactor E): #1 -0.0107; #2 1.46; #3 1.9
EHMT1 (euchromatic histone lysine methyltransferase 1): #1 -0.909; #2 -0.993; #3 -1.16; #4 2.57; #5 -0.556; #6 -0.251
BPIFA1 (BPI fold containing family A member 1): #1 2.5; #2 0.322; #3 -0.607

Sorted by “G2 robust z-score” (descending): some entries from above
gene	reagent no.	G2 robust z-score
OPTC (opticin)	3	5.61 (active)
OPTC (opticin)	2	2.29
MARK2 (microtubule affinity regulating kinase 2)	2	2.05
LGALS1 (galectin 1)	2	0.568
LGALS1 (galectin 1)	3	0.329
LGALS1 (galectin 1)	1	0.0885
MARK2 (microtubule affinity regulating kinase 2)	1	0.057
SLFN5 (schlafen family member 5)	1	-0.0187
MARK2 (microtubule affinity regulating kinase 2)	3	-0.77
